{"source": "patent US12472178B2", "about": "“Amorphous solid dispersions” (INTRA-CELLULAR THERAPIES, INC., priority 2016, dated 2025)", "origin": "cited, not measured here", "conditions": "cited from earlier work", "note": "For at least one compound, name, drawing or mass did not settle the structure.", "data": [{"smiles": "CN1CCN2c3c(cccc31)C1CN(CCCC(=O)c3ccc(F)cc3)CCC12.Cl", "note": "(stereo not shown) [hydrochloride salt form of ITI-007]", "values": [{"measurement": "hygroscopicity", "result": "hygroscopic"}]}]}
